The values below come from US20110003753A1, “COMPOSITIONS AND METHODS FOR DISRUPTING THE FUNCTION OF THE TRANSCRIPTIONAL REPRESSOR COMPONENT Sin3A-PAH2 DOMAIN TO INDUCE DIFFERENTIATION AND GROWTH INHIBITION IN BREAST CANCER” (SAMUEL WAXMAN CANCER RESEARCH FOUNDATION, priority 2009, published 2011).

Amino acid sequences for entries named in this document (tags omitted).
UniProt Q05195: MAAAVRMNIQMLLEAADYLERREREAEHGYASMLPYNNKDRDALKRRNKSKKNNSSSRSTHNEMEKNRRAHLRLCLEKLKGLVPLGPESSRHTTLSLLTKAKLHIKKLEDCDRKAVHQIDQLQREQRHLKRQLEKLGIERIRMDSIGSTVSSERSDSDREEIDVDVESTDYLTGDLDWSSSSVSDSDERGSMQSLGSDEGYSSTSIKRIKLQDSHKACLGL

No constants are given. Whether binding was seen depends on the method and setting. In cells and extracts the contact can be indirect. Some entries that bind do so weakly or less than the wild type. Sequences can lack the tags named with a protein.

The target of assay [1] is T1, GST-Sin3A PAH2 (Sin3A PAH2 domain, amino acids 306-450, expressed in E. coli as a GST fusion) (UniProt Q60520).
T1 sequence (looked up): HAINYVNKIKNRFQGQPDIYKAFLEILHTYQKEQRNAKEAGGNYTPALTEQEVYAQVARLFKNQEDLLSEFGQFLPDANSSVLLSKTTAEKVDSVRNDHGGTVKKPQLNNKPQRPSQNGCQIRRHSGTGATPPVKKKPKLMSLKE
The assay can be described thus: GST pull-down, 35S autoradiography (FIG. 2A, left panel).

The target in assay [2] is T1, GST-Sin3A PAH2 (Sin3A PAH2 domain, amino acids 306-450, expressed in E. coli as a GST fusion). The assay can be described thus: GST pull-down, Western blot (FIG. 2A, right panel).

In the case of “35S-methionine labeled in vitro translated MAD (from UniProt Q05195 1-221)”, the binding entry in assay [1] was “binds”.
In the case of “MAD immunoprecipitated from MDA-MB-231 cell lysates (from UniProt Q05195 1-221)”, the binding result in assay [2] is “binds”.
